Source: patent publication US20130287721A1, “METHOD FOR COUNTERACTING AMMONIA MALODOR” (Firmenich SA, priority 2010, published 2013)
Some entries share one result that the patent states for a list of compounds. At least one structure is not confirmed: it was looked up by name or label, or the drawing left a doubt.

Test system: ammonia lateralization threshold
Experiment: Panel evaluation of the lateralization threshold (LT) of ammonia alone and in combination with a PRM
Type: in vivo
Details: for at least two over two or three panellists
Description: An ammonia stimulus test range was prepared. To ensure a stable level of ammonia in each stimulus, the ammonia headspace was stabilized by combining appropriate concentrations of NH4Cl, NaOH and H2O instead of simply adding ammonia directly to a solvent. Different concentrations of ammonia were used to create a stimulus test range by utilizing the appropriate amount of each compound (see Table 1).
A stimulus was also prepared for each PRM which was intended to be combined with ammonia stimuli. As the PRMs differed in their potency and to ensure that each PRM stimulus had approximately the same potency, an abbreviated dose response curve was constructed for each PRM by having four panellists evaluate the intensity of five concentration levels of the PRM dissolved in propylene glycol in duplicate. Assessments were made relative to the reference of 170 ppm allyl heptanoate in propylene glycol, which intensity was set to 0. Based upon the average scores, a rough intensity match was made for each PRM utilizing one of the following criteria. If one of the tested concentration levels averaged at or near zero, this concentration level was selected. If the rating created any sort of reasonable curve, the equation of the curve was determined and solved for 0 to arrive at the PRM assessment level. If multiple concentration levels were equally distant form the match level, then the standard deviation across individuals was considered, as were the individual responses. In general, the PRM level was selected to be on average close to 0 with low variability, with two panellists saying the level was a bit too high and the other two panellists saying the level was a bit too low. The PRMs for which a stimulus was prepared are listed in Table 2 below, together with the concentration of the PRM in the stimulus.
Volunteers were screened for their ability to lateralize ammonia stimuli. For the screening, the experimenter measured the participant's lateralization threshold for ammonia using a two-alternative forced choice modified staircase procedure employing a four-in, two-down, one-up rule with a five reversal criterion, as described below, On each trial volunteers were presented with a pair of glass bottles with clean, custom-made nose pieces. One bottle contained ammonia at a particular level selected from Table 1 and the other bottle contained water only. Each bottle was applied to one nostril using the nose piece. The volunteers were asked to identify which bottle in each pair contained ammonia.
If the ammonia stimulus was correctly identified in four consecutive trials, the concentration was decreased by one level of Table 1 on the next trial. If an incorrect answer was provided, the concentration was increased by one level of Table 1. Location (left or right nostril) of the stimulus was randomized over presentations. Testing continued until one of the following occurred: • 1) Five reversals (correct decision followed by an incorrect decision or vice versa) were achieved; • 2) The volunteer gave a correct response twice in a row at the lowest level of Table 1; or • 3) The volunteer gave an incorrect response at the highest level of Table 1.
In the first circumstance, threshold values were then calculated by averaging the last four reversals. In the second circumstance, the LT was the lowest level. In the third circumstance, the LT could not be calculated. Volunteers were considered qualified to participate in the panel evaluation if their LT could be calculated (Circumstance 1).
The LT of ammonia, both alone and in combination with diverse PRM, was determined. A repeated-measures design was used, such that the LT with and without the addition of a PRM were both measured at the same time in one person by utilizing interwoven stimuli presentations. The LT for each PRM was measured by two to three panellists, the third panellists being included if the results of the first to panellists disagreed. […]

SMILES | elevating the LT of ammonia
C=C(C)C1CC=C(C)C(=O)C1 (stereo not drawn) [Carvone] | at least 20%
CCOC(=O)C1CCC(C(=O)OCC)CC1 (stereo not drawn) [Fructalate ®, Diethyl 1,4-cyclohexane dicarboxylate] | at least 20%
CC(C)=CCC[C@](C)(O)[C@@H]1CC=C(C)CC1 [Alpha-bisabolol] | at least 20%
C=CC(C)(O)CCC=C(C)C (stereo not drawn) [Linalool] | at least 20%
CCCc1ccc(OC)cc1 [Dihydroestragole] | at least 20%
O=C1CCCCCCCCCCCCCCO1 [Exaltolide ®, Pentadecanolide] | at least 20%
CC1C(=O)O[C@H]2C[C@@H](C)CC[C@H]12 (mixture of isomers) [Koumalactone ®, (3aRS,6SR,7aSR)-perhydro-3,6-dimethyl-benzo[B]furan-2-one] | at least 20%
CC(CC=O)CCCC(C)(C)O (stereo not drawn) [Hydroxycitronellal] | at least 20%
CC1=C(C=O)C(C)(C)CC=C1 [Safranal] | at least 20%
CC(C)=CCCC(C)CCO (stereo not drawn) [Citronellol] | at least 20%
CCCC(=O)OCC(C)C [Isopropylmethyl butyrate] | at least 20%
C=CCOC(=O)CCCCCC [Allyl heptanoate] | at least 20%
